# Reference: PubChem BioAssay AID1224830 (NIAID, 2016)
# Aim: 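Genes whose knock-down alters the TNF-alpha reporter response to LPS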 (primary screen)
# Cell system: human THP-1 monocytic leukaemia cells, TNF dual-luciferase reporter clone, PMA-differentiated to macrophage-like cells
# Knock-down reagent: siRNA pool against human genes, 50 nM
# Timing: LPS for 4 h, given about 3 days after siRNA transfection
# Treatment: bacterial LPS (TLR4 ligand), 10 ng/ml
# Measurement: 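Ratio of firefly to renilla light, scaled to the plate median and expressed as a robust z-score per replicate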
# Direction: TNF reporter robust z-score: higher = stronger TNF reporter response to LPS
# Hit rule: 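a well is active when its z-score exceeds 2.8 or falls below -1.5; control wells carry no call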
# Here is a random part of about 18,000 reagents tested. Of all reagents, about 2,900 (16%) are marked active. 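Calls are made per well; low scores hint the gene aids the LPS response, high scores that it dampens it.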 Repeated entries: four replicate wells of each siRNA pool.
gene,TNF reporter robust z-score,outcome
PSMB6 (GeneID 5694),-0.21,inactive
PSMB6 (GeneID 5694),-0.4,inactive
PSMB6 (GeneID 5694),0.08,inactive
PSMB6 (GeneID 5694),-0.76,inactive
DNAAF1 (GeneID 123872),0.78,inactive
DNAAF1 (GeneID 123872),-1.14,inactive
DNAAF1 (GeneID 123872),-1.08,inactive
DNAAF1 (GeneID 123872),-1.21,inactive
DNAAF1 (GeneID 123872),0.85,inactive
DNAAF1 (GeneID 123872),-0.73,inactive
DNAAF1 (GeneID 123872),1.33,inactive
DNAAF1 (GeneID 123872),2.33,inactive
PAK1IP1 (GeneID 55003),-0.7,inactive
PAK1IP1 (GeneID 55003),0.01,inactive
PAK1IP1 (GeneID 55003),0.68,inactive
PAK1IP1 (GeneID 55003),-0.24,inactive
ANKS3 (GeneID 124401),-0.32,inactive
ANKS3 (GeneID 124401),-0.18,inactive
ANKS3 (GeneID 124401),-1.34,inactive
ANKS3 (GeneID 124401),-0.81,inactive
ADM (GeneID 133),0.11,inactive
ADM (GeneID 133),0.64,inactive
ADM (GeneID 133),1.1,inactive
ADM (GeneID 133),0.99,inactive
MAPK15 (GeneID 225689),1.05,inactive
MAPK15 (GeneID 225689),0.37,inactive
MAPK15 (GeneID 225689),0.22,inactive
MAPK15 (GeneID 225689),0,inactive
KCNN1 (GeneID 3780),-1.17,inactive
KCNN1 (GeneID 3780),-0.51,inactive
KCNN1 (GeneID 3780),-0.66,inactive
KCNN1 (GeneID 3780),-0.37,inactive
GAA (GeneID 2548),1.05,inactive
GAA (GeneID 2548),-0.13,inactive
GAA (GeneID 2548),-0.14,inactive
GAA (GeneID 2548),0.07,inactive
PLEKHF2 (GeneID 79666),-0.96,inactive
PLEKHF2 (GeneID 79666),0.14,inactive
PLEKHF2 (GeneID 79666),-1.16,inactive
PLEKHF2 (GeneID 79666),-1.19,inactive
ZNF684 (GeneID 127396),-0.83,inactive
ZNF684 (GeneID 127396),-1.65,active
ZNF684 (GeneID 127396),-1.54,active
ZNF684 (GeneID 127396),-1.61,active
RPS17P16 (GeneID 402057),0.38,inactive
RPS17P16 (GeneID 402057),0.34,inactive
RPS17P16 (GeneID 402057),0.52,inactive
RPS17P16 (GeneID 402057),0.2,inactive
PLA2G6 (GeneID 8398),-0.83,inactive
PLA2G6 (GeneID 8398),-1.29,inactive
PLA2G6 (GeneID 8398),-0.73,inactive
PLA2G6 (GeneID 8398),-0.74,inactive
ST3GAL6 (GeneID 10402),-0.64,inactive
ST3GAL6 (GeneID 10402),1.81,inactive
ST3GAL6 (GeneID 10402),-0.11,inactive
ST3GAL6 (GeneID 10402),-0.02,inactive
GYS1 (GeneID 2997),0.09,inactive
GYS1 (GeneID 2997),-0.83,inactive
GYS1 (GeneID 2997),0.48,inactive
GYS1 (GeneID 2997),-0.42,inactive
PODXL (GeneID 5420),-0.46,inactive
PODXL (GeneID 5420),0.05,inactive
PODXL (GeneID 5420),0.18,inactive
PODXL (GeneID 5420),-0.12,inactive
PDCD4 (GeneID 27250),-0.37,inactive
PDCD4 (GeneID 27250),0.06,inactive
PDCD4 (GeneID 27250),0.05,inactive
PDCD4 (GeneID 27250),1.55,inactive
TCF12 (GeneID 6938),-1.43,inactive
TCF12 (GeneID 6938),-1.36,inactive
TCF12 (GeneID 6938),-1.01,inactive
TCF12 (GeneID 6938),-1.08,inactive
PRTG (GeneID 283659),1.26,inactive
PRTG (GeneID 283659),0.65,inactive
PRTG (GeneID 283659),0.42,inactive
PRTG (GeneID 283659),0.59,inactive

4 consecutive records from above, for reference:
gene,TNF reporter robust z-score,outcome
ADM (GeneID 133),0.11,inactive
ADM (GeneID 133),0.64,inactive
ADM (GeneID 133),1.1,inactive
ADM (GeneID 133),0.99,inactive
